Reference: patent US7611853B2, “Assay to screen for anti-malarials” (priority 2002, dated 2009)
For at least one compound, name, drawing or mass did not settle the structure.

Assays:
Plasmodium falciparum = experiment: Growth inhibitory effect of GA on synchronous parasites (Giemsa-stained smears); type: cell-based; conditions: GA 0.5, 1, 5 and 10 μM, 24 h, DMSO control progressed to trophozoite
Source text: In order to check if GA could inhibit Plasmodium falciparum growth in vitro, we prepared highly synchronous ring-infected parasites using 5% sorbitol. These ring-staged parasites were suspended in RPMI to make 5% hematocrit. […] This correlates with elevated expression of Pfhsp90 in the trophozoite stage compared to ring stage.

[1] = tested on: Plasmodium falciparum ring-infected erythrocytes; experiment: Anti-malarial effect of GA and HA on overall parasitemia (giemsa staining); type: cell-based
Procedure: To show the effects of GA on overall parasitemia, ring-infected erythrocytes were either treated with DMSO or with 5 μM GA for 48 hrs (culture was replenished with medium and GA every 24 hrs) and parasitemia was calculated by giemsa staining. While the mock-treated parasites multiplied at the end of 48 hrs, parasitemia was reduced to 50 percent in GA treated cultures by 48 hrs.

PfHsp90 [2] = experiment: Solid-phase GA binding assay, immunoblot analysis; parameters: species or system Plasmodium falciparum; conditions: trophozoite lysate, overnight 4° C.; control beads no binding
PfHsp90 [3] = experiment: Solid-phase GA binding, metabolic labeling of proteins and 2D-PAGE; parameters: species or system Plasmodium falciparum; conditions: 35S-labeled trophozoite lysate; control beads no binding
PfHsp90 [4] = experiment: Surface plasmon resonance (BIAcore) binding of parasite lysate to GA coupled chip; parameters: species or system Plasmodium falciparum
P. falciparum = experiment: Flow cytometry assay of P. falciparum growth inhibition (acridine orange); type: cell-based, Plasmodium falciparum; conditions: synchronous ring stage, 10 μM, 24 h; DMSO control corresponded to trophozoites

COC1=C2C[C@@H](C)C[C@H](OC)[C@H](O)[C@@H](C)/C=C(\C)[C@H](OC(N)=O)[C@@H](OC)/C=C\C=C(/C)C(=O)NC(=CC1=O)C2=O [GA, Geldanamycin]
stage progression of ring-staged parasites (Plasmodium falciparum): persisted in the ring stage even after 24 hrs
anti-malarial effect (summary statement) [1]: kill the malarial parasite at the stage of early trophozoite development
binding of PfHsp90 to GA-coupled beads (immunoblot) (PfHsp90 [2]): clearly see binding of PfHsp90 to the GA-coupled beads
protein bound to GA coupled beads (2D-PAGE, fluorography) (PfHsp90 [3]): identified as PfHsp90
binding after mixing lysate with antiserum to PfHsp90 (PfHsp90 [4]; parasite lysate mixed with antiserum to PfHsp90): binding was completely abolished
binding response (PfHsp90 [4]; parasite lysate over GA coupled CM5 chip, 1 μL/min): 900 RU
scattergram (SSC vs GF) of treated parasites (P. falciparum): scattergram corresponding to rings
